Results are given in words; binding and its absence hold for the method and conditions named. Some results given as binding are weak or reduced against the parent protein; the word gives no strength. For some of these results: Sequences can lack the tags named with a protein.
Key:
[1] = molecular target: T1, recombinant human biglycan (human) (UniProt P21810); experiment: TGF-β release assay on coated plates (FIG. 5)
T1 sequence (glycosaminoglycan chains (proteoglycan), sites not stated, looked up): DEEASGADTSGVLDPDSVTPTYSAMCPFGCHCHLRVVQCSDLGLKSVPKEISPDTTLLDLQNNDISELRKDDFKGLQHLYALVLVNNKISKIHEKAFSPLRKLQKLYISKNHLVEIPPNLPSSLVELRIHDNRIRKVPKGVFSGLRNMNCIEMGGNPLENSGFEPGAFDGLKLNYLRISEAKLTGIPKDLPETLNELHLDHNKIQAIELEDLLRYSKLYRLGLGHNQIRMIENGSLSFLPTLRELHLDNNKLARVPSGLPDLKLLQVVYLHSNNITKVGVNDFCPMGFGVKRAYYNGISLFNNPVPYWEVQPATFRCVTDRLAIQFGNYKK

The chains behind the UniProt entries cited, without tags or fusion partners. Residues count along the entry.
UniProt P07585, residues 17-359: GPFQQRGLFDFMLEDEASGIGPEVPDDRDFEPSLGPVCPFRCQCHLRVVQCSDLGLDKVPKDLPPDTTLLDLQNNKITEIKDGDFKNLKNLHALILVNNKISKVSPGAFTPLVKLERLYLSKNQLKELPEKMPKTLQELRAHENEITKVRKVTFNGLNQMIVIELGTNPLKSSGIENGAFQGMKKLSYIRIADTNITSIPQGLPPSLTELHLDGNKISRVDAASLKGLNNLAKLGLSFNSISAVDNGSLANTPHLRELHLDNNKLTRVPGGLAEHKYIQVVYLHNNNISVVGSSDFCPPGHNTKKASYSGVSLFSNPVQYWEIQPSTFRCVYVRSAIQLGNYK
UniProt P01137, residues 279-390: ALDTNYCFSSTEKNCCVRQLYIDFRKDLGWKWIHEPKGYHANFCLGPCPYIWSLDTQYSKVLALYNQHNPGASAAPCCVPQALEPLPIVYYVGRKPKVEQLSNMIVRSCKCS

[2] = molecular target: recombinant human decorin (human) (UniProt P07585); experiment: TGF-β release assay on coated plates (FIG. 5)
[3] = molecular target: T2, recombinant human soluble betaglycan (human) (UniProt Q03167); experiment: TGF-β release assay on coated plates (FIG. 5)
T2 sequence (glycosaminoglycan chains (proteoglycan), sites not stated, looked up): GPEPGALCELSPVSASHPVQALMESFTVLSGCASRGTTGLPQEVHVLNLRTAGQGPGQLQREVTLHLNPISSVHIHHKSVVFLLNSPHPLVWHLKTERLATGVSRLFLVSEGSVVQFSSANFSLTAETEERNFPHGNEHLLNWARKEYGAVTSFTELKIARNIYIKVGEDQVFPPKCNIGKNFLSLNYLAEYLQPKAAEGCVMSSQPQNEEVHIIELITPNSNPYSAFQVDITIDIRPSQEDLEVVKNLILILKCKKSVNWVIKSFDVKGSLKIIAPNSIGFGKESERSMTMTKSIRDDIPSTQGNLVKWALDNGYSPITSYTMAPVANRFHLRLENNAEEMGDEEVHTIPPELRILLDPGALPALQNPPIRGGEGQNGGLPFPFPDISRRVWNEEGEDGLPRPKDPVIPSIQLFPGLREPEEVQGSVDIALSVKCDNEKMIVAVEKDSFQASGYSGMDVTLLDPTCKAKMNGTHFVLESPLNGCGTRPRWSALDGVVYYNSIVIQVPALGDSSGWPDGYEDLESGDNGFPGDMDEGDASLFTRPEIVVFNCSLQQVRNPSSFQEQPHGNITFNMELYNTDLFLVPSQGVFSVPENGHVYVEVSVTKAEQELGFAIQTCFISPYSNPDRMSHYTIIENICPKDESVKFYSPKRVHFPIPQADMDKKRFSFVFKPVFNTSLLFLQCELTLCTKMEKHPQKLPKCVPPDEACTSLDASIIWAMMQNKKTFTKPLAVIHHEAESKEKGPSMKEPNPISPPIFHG

[4] = molecular target: T1, recombinant human biglycan (human); experiment: TGF-β1 added to proteoglycan coated on 48 well plates; Western blot of supernatants after 24 h
[5] = molecular target: recombinant human decorin (human) (UniProt P07585); experiment: as above
[6] = molecular target: T2, recombinant human soluble betaglycan (human); experiment: as above
[7] = molecular target: T2, recombinant human soluble betaglycan (human); experiment: betaglycan coated on 48 well plates, incubated with TGF-β, washed; Western blot of supernatants after 24 h (FIG. 16)

Measured: binding

active TGF-β1 (from UniProt P01137 279-390) (ligand)
binds: all assays above
